For two molecules, binding results are on record in PMC11019930, “DnaK duplication and specialization in bacteria correlates with increased proteome complexity” (mSystems, 2024).

Chains of the proteins cited; added tags and fusions are not shown.
UniProt P95334: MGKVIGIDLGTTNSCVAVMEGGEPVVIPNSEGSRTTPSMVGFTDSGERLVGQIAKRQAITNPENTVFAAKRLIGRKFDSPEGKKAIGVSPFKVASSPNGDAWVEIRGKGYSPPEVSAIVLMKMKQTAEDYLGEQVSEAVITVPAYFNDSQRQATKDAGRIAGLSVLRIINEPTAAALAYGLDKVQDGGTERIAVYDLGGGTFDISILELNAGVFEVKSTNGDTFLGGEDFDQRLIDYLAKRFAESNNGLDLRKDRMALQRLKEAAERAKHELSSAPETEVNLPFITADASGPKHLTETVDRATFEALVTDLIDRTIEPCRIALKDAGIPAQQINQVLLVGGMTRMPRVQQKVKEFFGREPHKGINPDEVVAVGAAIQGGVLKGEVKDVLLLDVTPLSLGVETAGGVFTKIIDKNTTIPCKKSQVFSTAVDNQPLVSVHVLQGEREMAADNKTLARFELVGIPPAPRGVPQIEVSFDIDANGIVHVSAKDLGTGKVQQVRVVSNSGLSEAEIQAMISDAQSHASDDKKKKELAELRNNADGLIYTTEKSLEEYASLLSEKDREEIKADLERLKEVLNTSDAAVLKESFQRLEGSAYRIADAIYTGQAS

Test [1] concerns the target His6-MxDnaK2 (Myxococcus xanthus DK1622) (UniProt P95334). The experiment in a line: affinity purification with mass spectrometry; two bands of 70–100 kDa in the lane of His6-MxDnaK2 purified from E. coli BL21 (DE3) on Ni-NTA, SDS-PAGE; identified as His6-MxDnaK2 with host proteins.
Test [2] deals with MxDnaK1 (MXAN_3192) (Myxococcus xanthus DK1622). In words: affinity purification with mass spectrometry; Co-IP from the soluble lysate of M. xanthus (DK1622; YL2203, YL2212, YL2213 for the chimeras) with anti-MxDnaK1 or anti-MxDnaK2 antibodies and Protein A/G beads, 4°C overnight; 50 U/mL apyrase in the lysis buffer to deplete ATP; LC-MS/MS, q-value ≤0.01, proteins found in at least two of three experiments.

In test [3] the target is MxDnaK2 (MXAN_6671) (Myxococcus xanthus DK1622) (UniProt P95334). The description is as above.

No constants are given. Whether binding was seen depends on the method and setting. Binding seen in cells or lysates may run through a third protein. These calls come from enrichment with a bait or labelling near it, and not all partners need be listed.

B1: anti-FlhDC factor (WP_001300634.1, 27 kDa) (protein, UniProt P76204 1-237)
chain: MKIFLENLYHSDCYFLPIRDNQQVLVGVELITHFSSEDGTVRIPTSRVIAQLTEEQHWQLFSEQLELLKSCQHFFIQHKLFAWLNLTPQVATLLLERDNYAGELLKYPFIELLINENYPHLNEGKDNRGLLSLSQVYPLVLGNLGAGNSTMKAVFDGLFTRVMLDKSFIQQQITHRSFEPFIRAIQAQISPCCNCIIAGGIDTAEILAQITPFDFHALQGCLWPAVPINQITTLVQR
As for B1, in test [1], the binding result is on record as “binds”.

B2: MXAN_6672 (protein, UniProt P95333 1-255)
chain: MTVIEVEASGPSTPVEAEASASPADTTSPPSDAEATPSEDVAALRQEVESLKAQLEFSQAKGRETMERLREAHERAKEAQERTVRHAADLENYRKRAQKEKEEVQRFGSEKLLKDLLPVMDNLDRAIDAAAKSPDLDSFEKGVAMTRKSFEDALGRHGVKGFSAKGQVFDPRVHEAIQQVETADVPAGHVAYEVVRGFYLNERLVRPAMVVVARAPAEPVAAAEPPAVAEPATATTDTEAPAAPAQSENSSGGSQ
In the case of B2, the binding result in test [2] and in test [3] was “binds” throughout.
